Measurements published in article PMC12774660 (Nucleic Acids Research, 2026).
No constants are given. Whether binding was seen depends on the method and setting. Where a sequence is shown, tags or fusion partners need not be part of it.

Protein sequences, listed by entry. Tags and fused reporters are not part of them. Lines headed by an entry give the natural chain unless they say otherwise; changes in a name come on top.
UniProt Q9UKF6: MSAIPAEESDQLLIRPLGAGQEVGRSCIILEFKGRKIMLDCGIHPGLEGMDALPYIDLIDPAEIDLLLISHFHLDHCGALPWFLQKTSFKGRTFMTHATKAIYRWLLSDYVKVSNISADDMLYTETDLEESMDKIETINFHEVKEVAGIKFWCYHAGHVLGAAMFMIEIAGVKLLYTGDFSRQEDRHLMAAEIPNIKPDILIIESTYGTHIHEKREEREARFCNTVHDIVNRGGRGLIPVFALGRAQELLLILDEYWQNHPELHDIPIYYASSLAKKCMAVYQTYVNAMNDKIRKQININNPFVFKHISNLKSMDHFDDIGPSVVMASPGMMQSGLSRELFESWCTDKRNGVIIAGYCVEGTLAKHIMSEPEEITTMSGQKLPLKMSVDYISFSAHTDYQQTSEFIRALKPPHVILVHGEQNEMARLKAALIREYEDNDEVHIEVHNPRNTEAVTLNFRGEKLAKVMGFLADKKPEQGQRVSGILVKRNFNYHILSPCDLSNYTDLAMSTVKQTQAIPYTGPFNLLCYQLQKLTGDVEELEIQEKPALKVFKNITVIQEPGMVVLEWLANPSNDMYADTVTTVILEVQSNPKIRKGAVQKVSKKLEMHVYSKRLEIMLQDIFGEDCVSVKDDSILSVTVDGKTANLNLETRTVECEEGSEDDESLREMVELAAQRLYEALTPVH

Molecular target: T1, MBP–CstF77 fusion protein (human CstF77 residues 666–717), from E. coli (human) (UniProt Q12996)
T1 sequence: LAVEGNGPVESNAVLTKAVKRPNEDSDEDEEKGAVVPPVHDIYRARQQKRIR
Assay: pull-down; amylose resin; MBP–CstF77 (human, residues 666–717) as bait, purified HCC as prey; control: amylose beads alone; both purified

Q: Which binding does the source give for “histone pre-mRNA cleavage complex (HCC) (from UniProt Q9UKF6 1-684; Q9P2I0 1-782; Q92797 30-1101; P33240 1-577)” here?
A: The binding was “no binding”.
